# Results from one PubChem assay

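A panel of P. falciparum strains inside erythrocytes is exposed to compounds for three days, then a DNA-binding dye reports the amount of parasite DNA.
Each compound was titrated across a series from about 0.000037 to 29 µM.
The number is the fitted AC50, the concentration giving a half-maximal change in signal; a lower value means higher potency, whether the curve shows a decrease or an increase.
Calls follow the curve class and fit quality: every row here is inconclusive, covering signal-raising curves and weak, poorly fitted, partial or highest-dose-only inhibition curves.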

Values are in µM.
All entries here are filed as inconclusive.
These entries are mostly ones the record files as inconclusive; other results of the assay are not listed here.
A potency from a partial, single-point or poor curve is only a rough figure.
The first word of each remark tells which way the curve ran; it can be opposite to the aim of the assay.

Compound,condition,potency (µM),remark
C[C@]12CC[C@H]3[C@@H](CC[C@@]45O[C@@H]4C(=O)C(C#N)C[C@]35C)[C@@H]1CC[C@@H]2O (some centres undefined),N140,3.981,"inhibitor, single point"
C[C@]12CC[C@H]3[C@@H](CC[C@@]45O[C@@H]4C(=O)C(C#N)C[C@]35C)[C@@H]1CC[C@@H]2O (some centres undefined),CP191,1.259,"inhibitor, single point"
C[C@]12CC[C@H]3[C@@H](CC[C@@]45O[C@@H]4C(=O)C(C#N)C[C@]35C)[C@@H]1CC[C@@H]2O (some centres undefined),TAB113,3.981,"inhibitor, single point"
C[C@]12CC[C@H]3[C@@H](CC[C@@]45O[C@@H]4C(=O)C(C#N)C[C@]35C)[C@@H]1CC[C@@H]2O (some centres undefined),CP265,3.162,"inhibitor, single point"
C[C@]12CC[C@H]3[C@@H](CC[C@@]45O[C@@H]4C(=O)C(C#N)C[C@]35C)[C@@H]1CC[C@@H]2O (some centres undefined),CP185,2.818,"inhibitor, single point"
C[C@]12CC[C@H]3[C@@H](CC[C@@]45O[C@@H]4C(=O)C(C#N)C[C@]35C)[C@@H]1CC[C@@H]2O (some centres undefined),CP256,1.122,"inhibitor, partial curve"
C[C@]12CC[C@H]3[C@@H](CC[C@@]45O[C@@H]4C(=O)C(C#N)C[C@]35C)[C@@H]1CC[C@@H]2O (some centres undefined),P93_24,3.548,"inhibitor, single point"
C[C@]12CC[C@H]3[C@@H](CC[C@@]45O[C@@H]4C(=O)C(C#N)C[C@]35C)[C@@H]1CC[C@@H]2O (some centres undefined),AA1029,3.162,"inhibitor, single point"
C[C@]12CC[C@H]3[C@@H](CC[C@@]45O[C@@H]4C(=O)C(C#N)C[C@]35C)[C@@H]1CC[C@@H]2O (some centres undefined),W2,15.1,"inhibitor, single point"
C[C@]12CC[C@H]3[C@@H](CC[C@@]45O[C@@H]4C(=O)C(C#N)C[C@]35C)[C@@H]1CC[C@@H]2O (some centres undefined),ATS189,1.995,"inhibitor, single point"
C[C@]12CC[C@H]3[C@@H](CC[C@@]45O[C@@H]4C(=O)C(C#N)C[C@]35C)[C@@H]1CC[C@@H]2O (some centres undefined),C2A,1,"inhibitor, single point"
C[C@]12CC[C@H]3[C@@H](CC[C@@]45O[C@@H]4C(=O)C(C#N)C[C@]35C)[C@@H]1CC[C@@H]2O (some centres undefined),SC27B,3.981,"inhibitor, single point"
C[C@]12CC[C@H]3[C@@H](CC[C@@]45O[C@@H]4C(=O)C(C#N)C[C@]35C)[C@@H]1CC[C@@H]2O (some centres undefined),ECU,3.981,"inhibitor, single point"
C[C@]12CC[C@H]3[C@@H](CC[C@@]45O[C@@H]4C(=O)C(C#N)C[C@]35C)[C@@H]1CC[C@@H]2O (some centres undefined),DFO2036,3.981,"inhibitor, single point"
C[C@]12CC[C@H]3[C@@H](CC[C@@]45O[C@@H]4C(=O)C(C#N)C[C@]35C)[C@@H]1CC[C@@H]2O (some centres undefined),CP217,1.585,"inhibitor, single point"
C[C@]12CC[C@H]3[C@@H](CC[C@@]45O[C@@H]4C(=O)C(C#N)C[C@]35C)[C@@H]1CC[C@@H]2O (some centres undefined),CP252,3.548,"inhibitor, single point"
C[C@]12CC[C@H]3[C@@H](CC[C@@]45O[C@@H]4C(=O)C(C#N)C[C@]35C)[C@@H]1CC[C@@H]2O (some centres undefined),DIV17,10.69,"inhibitor, partial curve, poor fit"
C[C@]12CC[C@H]3[C@@H](CC[C@@]45O[C@@H]4C(=O)C(C#N)C[C@]35C)[C@@H]1CC[C@@H]2O (some centres undefined),ATS95,3.981,"inhibitor, single point"
C[C@]12CC[C@H]3[C@@H](CC[C@@]45O[C@@H]4C(=O)C(C#N)C[C@]35C)[C@@H]1CC[C@@H]2O (some centres undefined),TAB109,2.818,"inhibitor, single point"
C[C@]12CC[C@H]3[C@@H](CC[C@@]45O[C@@H]4C(=O)C(C#N)C[C@]35C)[C@@H]1CC[C@@H]2O (some centres undefined),CP194,13.46,"inhibitor, partial curve, poor fit"
Cc1ncsc1CCCl,P93_24,3.981,"inhibitor, single point"
Cc1ncsc1CCCl,CP291,1.901,"activator, full curve, poor fit"
CCOC(=S)SSC(=S)OCC,CP247,11.22,"activator, single point"
CC(=O)c1ccc2c(c1)N(CCCN1CCN(CCO)CC1)c1ccccc1S2,CP201,16.94,"inhibitor, single point"
CC(=O)c1ccc2c(c1)N(CCCN1CCN(CCO)CC1)c1ccccc1S2,CP238,8.912,"inhibitor, single point"
CC(=O)c1ccc2c(c1)N(CCCN1CCN(CCO)CC1)c1ccccc1S2,CP291,16.94,"inhibitor, single point"
CC(=O)c1ccc2c(c1)N(CCCN1CCN(CCO)CC1)c1ccccc1S2,CP250,17.78,"inhibitor, single point"
CC(=O)c1ccc2c(c1)N(CCCN1CCN(CCO)CC1)c1ccccc1S2,HB3,17.78,"inhibitor, single point"
CC(=O)c1ccc2c(c1)N(CCCN1CCN(CCO)CC1)c1ccccc1S2,PAD,10,"inhibitor, single point"
CC(=O)c1ccc2c(c1)N(CCCN1CCN(CCO)CC1)c1ccccc1S2,ATS189,10,"inhibitor, single point"
CC(=O)c1ccc2c(c1)N(CCCN1CCN(CCO)CC1)c1ccccc1S2,AS120,11.22,"inhibitor, single point"
CC(=O)c1ccc2c(c1)N(CCCN1CCN(CCO)CC1)c1ccccc1S2,FAB9,17.78,"inhibitor, single point"
CC(=O)c1ccc2c(c1)N(CCCN1CCN(CCO)CC1)c1ccccc1S2,CP192,19.01,"inhibitor, single point"
CC(=O)c1ccc2c(c1)N(CCCN1CCN(CCO)CC1)c1ccccc1S2,N140,17.78,"inhibitor, single point"
CC(=O)c1ccc2c(c1)N(CCCN1CCN(CCO)CC1)c1ccccc1S2,ATS95,11.22,"inhibitor, single point"
CC(=O)c1ccc2c(c1)N(CCCN1CCN(CCO)CC1)c1ccccc1S2,3D7,17.78,"inhibitor, single point"
CC(=O)c1ccc2c(c1)N(CCCN1CCN(CCO)CC1)c1ccccc1S2,C2A,11.22,"inhibitor, single point"
CC(=O)c1ccc2c(c1)N(CCCN1CCN(CCO)CC1)c1ccccc1S2,CP262,4.776,"inhibitor, partial curve"
CC(=O)c1ccc2c(c1)N(CCCN1CCN(CCO)CC1)c1ccccc1S2,SC27B,10,"inhibitor, single point"
CC(=O)c1ccc2c(c1)N(CCCN1CCN(CCO)CC1)c1ccccc1S2,TAB113,14.13,"inhibitor, single point"
CC(=O)c1ccc2c(c1)N(CCCN1CCN(CCO)CC1)c1ccccc1S2,CP315,19.01,"inhibitor, single point"
CC(=O)c1ccc2c(c1)N(CCCN1CCN(CCO)CC1)c1ccccc1S2,DFO2036,10,"inhibitor, single point"
CC(=O)c1ccc2c(c1)N(CCCN1CCN(CCO)CC1)c1ccccc1S2,CP211,15.1,"inhibitor, single point"
CC(=O)c1ccc2c(c1)N(CCCN1CCN(CCO)CC1)c1ccccc1S2,JCK,17.78,"inhibitor, single point"
CC(=O)c1ccc2c(c1)N(CCCN1CCN(CCO)CC1)c1ccccc1S2,CP194,16.94,"inhibitor, single point"
CCCN1C[C@H](CSC)C[C@@H]2c3cccc4[nH]cc(c34)C[C@H]21,GB4,12,"inhibitor, partial curve"
CCCN1C[C@H](CSC)C[C@@H]2c3cccc4[nH]cc(c34)C[C@H]21,CP237,10,"inhibitor, partial curve"
CCCN1C[C@H](CSC)C[C@@H]2c3cccc4[nH]cc(c34)C[C@H]21,CP194,8.492,"inhibitor, partial curve"
CCCN1C[C@H](CSC)C[C@@H]2c3cccc4[nH]cc(c34)C[C@H]21,CP260,12.59,"inhibitor, partial curve"
CCCN1C[C@H](CSC)C[C@@H]2c3cccc4[nH]cc(c34)C[C@H]21,P93_24,5.012,"inhibitor, partial curve"
CCCN1C[C@H](CSC)C[C@@H]2c3cccc4[nH]cc(c34)C[C@H]21,P94_40,8.912,"inhibitor, partial curve"

For reference, 6 entries once more:

Compound	condition	potency (µM)	remark
C[C@]12CC[C@H]3[C@@H](CC[C@@]45O[C@@H]4C(=O)C(C#N)C[C@]35C)[C@@H]1CC[C@@H]2O (some centres undefined)	AA1029	3.162	inhibitor, single point
CC(=O)c1ccc2c(c1)N(CCCN1CCN(CCO)CC1)c1ccccc1S2	CP201	16.94	inhibitor, single point
C[C@]12CC[C@H]3[C@@H](CC[C@@]45O[C@@H]4C(=O)C(C#N)C[C@]35C)[C@@H]1CC[C@@H]2O (some centres undefined)	C2A	1	inhibitor, single point
CC(=O)c1ccc2c(c1)N(CCCN1CCN(CCO)CC1)c1ccccc1S2	FAB9	17.78	inhibitor, single point
CC(=O)c1ccc2c(c1)N(CCCN1CCN(CCO)CC1)c1ccccc1S2	3D7	17.78	inhibitor, single point
C[C@]12CC[C@H]3[C@@H](CC[C@@]45O[C@@H]4C(=O)C(C#N)C[C@]35C)[C@@H]1CC[C@@H]2O (some centres undefined)	TAB109	2.818	inhibitor, single point

From PubChem BioAssay record AID504749 (NCATS, 2011).